Measurements: patent US20070122843A1, “Isoflavonoid analogs and their metal complexes as anti-cancer agents” (priority 2005, published 2007)
Some results were stated once for a whole list of compounds, not compound by compound. At least one structure is not confirmed: it was looked up by name or label, or the drawing left a doubt.

Test system: breast, prostate and pancreatic cancer cell lines
Assay: MTT assay, statements over several cancer cell lines
Type: cell-based
Procedure: The compounds were tested in multiple panels of breast (MCF-7, T47D, BT20 and MDA-MB231), prostate (PC3), and pancreatic (BxPC3, COLO357) cancer cell lines, using the dye 3-[4,5 dimethylthiazol-2-yl]-2,5 diphenyltetrazolium bromide (MTT assay) according to a method described in Banerjee, et al., Cancer Research. 2002 62, 4945.
More specifically, the tumor cell lines MCF-7, MDA-MB 231 and COLO 357 were maintained in Dulbecco's modifed Eagle's medium (DMEM) with phenol red. Cell lines T47D, BT20, PC3 and BxPC3 were routinely cultured in RPMI medium, each medium being supplemented with Penicillin (50U/ml), Streptomycin (50 μg/ml) and 10% fetal calf serum (FCS) (Gibco, Myclone). The cell lines were cultured in a humidified incubator in an atmosphere of 5% CO2 and were maintained in continuous exponential growth by twice a week passage.
Adherent cells at a logarithmic phase were detached by addition of 2-3 ml of trypsin (Gibco), 0.02% EDTA mixture and incubation at 37° C. Cells were plated (100 μL per well) in 48 well flat bottom microtiter plates at densities of 2000 to 5000 per cm^2 (MCF-7, MDA-MB321, T47D, BT20, PC3, B×PC3, COLO357) cells per well. Cells were incubated for 24 h at 37° C. to resume exponential growth. […] Cell proliferation was evaluated after 72 h by means of MTT assay. […]

Compound: NC1=[S+][Cu-2]([Cl])([Cl])[N+](=Cc2coc3ccccc3c2=O)N1 [FPA-124]
- concentration inhibiting growth of BxPC3 and COLO 357 cells: > 20 µM
